Source: PubChem BioAssay AID540256 (National Center for Advancing Translational Sciences (NCATS), 2011)
Out of some 300,000 compounds screened, about 3,700 (1.2%) were called active. The inconclusive results got no clear call from the source; some entries with a clear call stand among them for comparison. The call rests on the fitted dose curve; tested in HEK293 cells. Potencies beside an inconclusive call are fits to weak or partial responses and may not hold up.

Experiment: qHTS for Inhibitors of binding or entry into cells for Lassa Virus; further: nearly all actives have a fitted effect of over 50% in size
Details: Lassa virus pseudotype entry inhibition, cell reporter; activity change, negative = inhibition: at 37.9 µM (top of the series) unless noted
On the % scale 0 is the no-effect control and ±100 the full control effect; potency means the concentration at half of the fitted maximal effect.

SMILES | activity change, negative = inhibition | Potency
Cc1ccc(-n2c(=O)c3c(c4cc(C)ccc4n3C)n(CC(=O)N3CCCC3)c2=O)cc1 | inactive: -8.72% [at 46.1 µM] | 
O=C(NC1CCCCC1)N1CCCC(CNS(=O)(=O)Cc2ccccc2)C1 (configuration not stated) | inconclusive: 19.4% [activator] | 
COc1ccc(NCc2cccn2-c2nnc(N3CCCCC3)s2)cc1OC |  | inconclusive: 5.62 µM [activator, partial curve, poor fit]
Cc1cc(C)c(NC(=O)C2CCN(c3nn4c(=O)cc(C)nc4s3)CC2)c(C)c1 | inactive: 7.28% [at 46.1 µM] | 
O=c1cc(CN2CCc3ccccc32)nc2sccn12 |  | inconclusive: 3.55 µM [activator, partial curve, poor fit]
CCN(CC)CCCNc1ncnc2c1cnn2-c1ccc(C)c(C)c1 | inconclusive: 19.4% [activator] [at 46.1 µM] | 
CC(C)c1ccc(S(=O)(=O)N2CCN(C(C)C(=O)Nc3ccccc3-c3ccccc3)CC2)cc1 (configuration not stated) |  | inconclusive: 11.2 µM [inhibitor, partial curve, poor fit]
CC(C)(O)C#Cc1ccc(C(=O)N2CCN(c3ccc(Cl)cc3)CC2)cc1 | inactive: 16.8% | 
Cc1ccc(-c2cc(C(=O)Nc3cccc(S(=O)(=O)N(C)C)c3)c3ccccc3n2)o1 | inactive: -23.9% | 
CC(=O)Nc1ccc(NC(=O)C(C)c2cccc(C(=O)c3ccccc3)c2)cc1 (configuration not stated) | inactive: -17.7% | 
Cc1ccccc1NC(=O)COc1coc(CN2CCCc3ccccc32)cc1=O |  | inconclusive: 35.5 µM [inhibitor, single point]
COc1cc(Br)cc(C2C3=C(CCCC3=O)N(c3ccc(F)cc3)C3=C2C(=O)CCC3)c1O |  | inconclusive: 15.8 µM [inhibitor, single point]
COc1ccc(C(=O)CN2C(=O)NC3(CCCCCC3)C2=O)cc1 |  | inconclusive: 1.26 µM [inhibitor, single point]
c1c2c(cc3sc(N4CCOCC4)nc13)OCO2 |  | inconclusive: 3.66 µM [activator, partial curve, poor fit]
COc1ccc(C2N=C(N)Nc3nc4ccccc4n32)cc1 (configuration not stated) | inactive: -33% [at 46.1 µM] | 
Cc1ccc(S(=O)(=O)N[C@H](C(=O)OCC(=O)N2N=C(c3ccc(Cl)cc3)CC2c2ccco2)C(C)C)cc1 (some centres not stated) |  | inconclusive: 35.5 µM [inhibitor, single point]
Cc1cccc(NC(=O)c2ccc(C3SCC(=O)N3CCc3ccccc3)cc2)c1 (configuration not stated) |  | inconclusive: 23.1 µM [inhibitor, partial curve, poor fit]
CCNc1nc(NCC)n2c(SC(C(=O)Nc3cc(C)ccc3C)c3ccccc3)nnc2n1 (configuration not stated) | inactive: -5.67% | 
Cn1nc(C(=O)OCC(=O)c2ccc(Cl)cc2)c2ccccc2c1=O |  | inconclusive: 11.2 µM [activator, partial curve, poor fit]
CC(C)(C)CNc1cc(N2CCOCC2)ccc1[N+](=O)[O-] |  | inconclusive: 11.2 µM [inhibitor, single point]
O=[N+]([O-])c1ccc(Nc2ccc(N3CCOCC3)cc2)c([N+](=O)[O-])c1 |  | inconclusive: 0.316 µM [inhibitor, full curve, poor fit]

SMILES | activity change, negative = inhibition | Potency
O=C(O)c1ccc2c(=O)n3c(nc2c1)/C(=C/c1ccccc1Br)CC3 | inactive: -0.933% | 
CCN(Cc1ccccc1)S(=O)(=O)c1ccc(C(=O)Nc2nnc(-c3ccccc3OC)o2)cc1 |  | inconclusive: 14.1 µM [inhibitor, partial curve, poor fit]
Cc1ccc(NC(=O)CC2S/C(=N/N=C3\CCCc4ccccc43)NC2=O)cc1 (configuration not stated) |  | inconclusive: 12.6 µM [inhibitor, partial curve, poor fit]
C/C=C/c1ccc(OCCCCOc2ccccc2C(C)=O)c(OC)c1 | inactive: -17.4% | 
CCN(CC)C(=O)N1CCC(NC(=O)Cc2ccccc2)CC1 |  | inconclusive: 32.6 µM [inhibitor, single point]
CC1CCN(S(=O)(=O)c2ccc3c(ccc(=O)n3CC(=O)Nc3cccc(F)c3)c2)CC1 |  | inconclusive: 5.62 µM [inhibitor, single point]
COc1ccc(CCNc2ncnc3c2cnn3-c2cc(Cl)ccc2C)cc1 |  | inconclusive: 22.4 µM [inhibitor, single point]
COc1ccc(C(=O)Nc2ccccc2C(=O)N(Cc2ccco2)C(C(N)=O)C(C)C)cc1 (configuration not stated) |  | inconclusive: 14.6 µM [inhibitor, partial curve, poor fit]
Cc1ccccc1NC(=O)CCCSc1nc2ccccc2s1 | inactive: -17.5% | 
COc1ccc(Br)cc1CN(C)C(=O)c1ccccc1OCc1c(C)noc1C |  | inconclusive: 20 µM [inhibitor, single point]
FC(F)(F)c1cccc(-c2nn3ncccc3c2-c2ccnc(Nc3ccc4c(c3)OCCO4)n2)c1 |  | inconclusive: 31.5 µM [inhibitor, single point]
CCC(=O)N/C(=N/c1nc(C)cc(C)n1)Nc1ccccc1 | inactive: -4.38% | 
O=C(N/N=C/c1cn(-c2ccccc2)nc1-c1cccnc1)c1ccccc1 | inactive: -26.7% [at 46.1 µM] | 
Cc1ccc(-n2nc(CO)c(C(=O)NC(C)CCCc3ccccc3)n2)cc1C (configuration not stated) |  | inconclusive: 3.98 µM [inhibitor, partial curve, poor fit]
COc1ccc(Oc2c(O)c3ccccc3n(C)c2=O)cc1 |  | inconclusive: 2.06 µM [inhibitor, partial curve, poor fit]
CN(C)c1ccc(/C=C(/NC(=O)c2ccccc2)C(=O)N/N=C/c2ccc([N+](=O)[O-])c(O)c2)cc1 |  | inconclusive: 23.1 µM [inhibitor, partial curve, poor fit]
Cc1ccc(O)c(C(=O)c2cc(C#N)c(=O)n(C(C)c3ccccc3)c2)c1 (configuration not stated) |  | inconclusive: 15.8 µM [inhibitor, single point]
CC(NC(=O)c1ccc([N+](=O)[O-])o1)C1CC2CCC1C2 (configuration not stated) |  | inconclusive: 15.8 µM [inhibitor, single point]
CCOC(=O)C(O)C1CCc2c([nH]c3ccc(C)cc23)C1=O (configuration not stated) |  | active: 11.2 µM
CCC(C)NC(=O)CSc1c2c(nc3ccccc13)CCCC2 (configuration not stated) | inactive: -25.7% | 
CNC(=O)c1cc(C(=O)c2ccccc2Br)c[nH]1 |  | inconclusive: 5.62 µM [activator, full curve, poor fit]
